Our source for the percent viability values is the supplement of paper PMC8256030.

Where “and” joins values, the source holds several entries; their conditions need not be identical. Equal entries are not always repeated. Structures can show the parent of a compound that is named as a salt. This is one part of the list. This data set is noisy: repeats of one test often differ as much as different tests do.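 HEK293T cells were given each compound shortly before transfection with a reporter in which red mCherry is followed by the SARS-CoV-2 frameshift element and then GFP in the −1 frame, so GFP appears only after frameshifting.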

The subject of this assay is HEK293T. The experiment in a line: percent viability (nuclei count) relative to control; higher = more viable cells. The following applies: 10 µM; 24 h.
On to `CCCN[C@H]1CCc2nc(N)sc2C1` [pramipexole], for which the percent viability was determined as 86.4%. The figure for `FC(F)(F)COCC(F)(F)F` is 189%; for `CCCCOc1cc(C(=O)OCCN(CC)CC)ccc1N` it is 176%; for `CC(N)C(=O)OC(C)(C)Cc1ccc(Cl)cc1` (centres undefined) [alaproclate] it is 199%. Then `NS(=O)(=O)c1ccc(S(=O)(=O)Nc2cccc3c(Cl)c[nH]c23)cc1` [indisulam], with 251%. Then `CCCCCCCCCCCCCCCCCCCCCCO`, with 192%; and `Cc1cnc(C(=O)NCCc2ccc(S(=O)(=O)NC(=O)NC3CCCCC3)cc2)cn1` [Glipizide], with 120%. For `NS(=O)(=O)c1cc(Cl)c(Cl)c(S(N)(=O)=O)c1` [diclofenamide], the percent viability is 248%. Then `CNS(=O)(=O)Cc1ccc2[nH]cc(CCCN3CCN(c4ncncc4OC)CC3)c2c1` [avitriptan], with 80%; and `CS(=O)(=O)c1ccc(C2=C(c3ccccc3)C(=O)OC2)cc1` [rofecoxib], with 142% and 266%; and `Cc1c(Cl)cccc1Nc1ccccc1C(=O)O` [tolfenamic acid], with 314% and 141%. As for `NC12CC3CC(CC(C3)C1)C2`, the percent viability worked out at 101%. Regarding `CN1C(C(=O)Nc2ccccn2)=C(O)c2ccccc2S1(=O)=O` [Piroxicam], the percent viability came out at 219%. In the case of `CN1CCc2nc(C(=O)N[C@@H]3C[C@@H](C(=O)N(C)C)CC[C@@H]3NC(=O)C(=O)Nc3ccc(Cl)cn3)sc2C1` [Edoxaban], the percent viability was determined as 87.9%.

Consider `Nc1nc(=O)[nH]cc1F` [flucytosine], for which the percent viability was found to be 258%. Take `Cc1c(O)cccc1C(=O)N[C@@H](CSc1ccccc1)[C@H](O)CN1C[C@H]2CCCC[C@H]2C[C@H]1C(=O)NC(C)(C)C` [Nelfinavir mesylate]: the percent viability was found to be 224%. `COc1ccc(-c2[nH]c3ccccc3c2-c2ccc(OC)cc2)cc1` [indoxole]: the percent viability stood at 22.1%.

For the compound `CCN(CC)C(C)CN1c2ccccc2Sc2ccccc21` (centres undefined) [profenamine], the percent viability is 143%. In the case of `C=C1CC[C@H](O)C/C1=C/C=C1\CCC[C@]2(C)[C@@H]([C@H](C)/C=C/[C@H](C)C(C)C)CC[C@@H]12` [Ergocalciferol], the percent viability turned out to be 202%. Regarding `NS(=O)(=O)c1ccc(C(=O)O)cc1` [carzenide], the percent viability is 365%. Then `C=C1/C(=C\C=C2/CCC[C@]3(C)[C@@H]([C@H](C)/C=C/[C@H](C)C(C)C)CC[C@@H]23)C[C@@H](O)C[C@@H]1O` [doxercalciferol], with 175%; and `CC(=O)OCC1=C(C(=O)O)N2C(=O)[C@@H](NC(=O)CSc3ccncc3)[C@H]2SC1`, with 241%; and `CC(C)NC[C@@H](O)COc1cccc2ccccc12`, with 183%. The figure for `NC(=O)NC(=O)C(Oc1ccc(Cl)cc1)Oc1ccc(Cl)cc1` [urefibrate] is 54.3%. For `C[C@]12CC[C@@H]3c4ccc(O)cc4CC[C@H]3[C@@H]1C[C@@H](O)[C@@H]2O`, the percent viability came to 123%. Then `O=C(O)C[C@H](O)C[C@H](O)/C=C/c1c(C2CC2)nc2ccccc2c1-c1ccc(F)cc1` [Pitavastatin], with 32%; and `N[C@@H]1CCCCN(c2c(F)cc3c(=O)c(C(=O)O)cn(C4CC4)c3c2Cl)C1` [Besifloxacin], with 146%. Then `CO[C@H]1/C=C/O[C@@]2(C)Oc3c(C)c(O)c4c(O)c(cc(O)c4c3C2=O)NC(=O)/C(C)=C\C=C\[C@H](C)[C@H](O)[C@@H](C)[C@@H](O)[C@@H](C)[C@H](OC(C)=O)[C@@H]1C`, with 136%. Then `CCCn1c(=O)c(CCCOC(=O)NC)nc2ccccc21` [bamaquimast], with 190%; and `C=C1CC[C@H](O)C/C1=C/C=C1\CCC[C@]2(C)[C@@H]([C@H](C)CCCC(C)C)CC[C@@H]12` [colecalciferol], with 169% and 247%; and `Cc1noc(NS(=O)(=O)c2ccc(N)cc2)c1C` [sulfafurazole], with 129%. `CO[C@H]1C[C@H](O[C@@H]2/C(C)=C\C[C@@H]3C[C@@H](C[C@]4(C=C[C@H](C)[C@@H](C(C)C)O4)O3)OC(=O)[C@@H]3C=C(C)[C@@H](O)[C@H]4OC/C(=C/C=C\[C@@H]2C)[C@]43O)O[C@@H](C)[C@H]1O[C@H]1C[C@@H](OC)[C@H](NC(C)=O)[C@H](C)O1`: the percent viability was 302%. As for `O=C([O-])C(O)C(O)C(O)C(O)C(O)CO.[Na+]` (centres undefined), the percent viability came to 224%. The figure for `CC1(C)C[C@@H]1C(=O)N/C(=C\CCCCSC[C@H](N)C(=O)O)C(=O)O` [cilastatin] is 162%; for `O=C1c2ccccc2S(=O)(=O)N1CCCCN1CCN(c2ncccn2)CC1` [ipsapirone] it is 103%. Then `CNC(=S)C1(c2ccccn2)CCCS1` (centres undefined) [picartamide], with 123%; and `CC1=C(CC(=O)O)c2cc(F)ccc2/C1=C\c1ccc([S+](C)[O-])cc1` (centres undefined) [sulindac], with 148%; and `C#C[C@]1(OC(C)=O)CC[C@H]2[C@@H]3CCC4=C/C(=N/O)CC[C@@H]4[C@H]3CC[C@@]21CC`, with 220%. Then `CCOC(N)=O` [urethane], with 125%.
